# Test results as given in PubChem BioAssay AID504466 (National Center for Advancing Translational Sciences (NCATS), 2011).
# The list shows a part of the results, in another mix than the full data. Records with an inconclusive call do not appear. The source made the active and inactive calls. The call rests on the fitted dose curve; in most records, active means well fitted activation curve with a large enough effect; inconclusive means small, poorly fitted or top-dose-only effect; inactive means no such curve, though single readings can be large or run the other way.
# Assay: qHTS screen for small molecules that induce genotoxicity in human embryonic kidney (HEK293T) cells expressing luciferase-tagged ELG1; further: nearly all actives have a fitted effect of over 60% in size
# Conditions: HEK293T ELG1-luciferase reporter, luminescence, 16 h
# Text: NIH Molecular Libraries Probe Production Network [MLPCN] NIH Chemical Genomics Center [NCGC] MLPCN Grant: 1 R03 MH092164-01 Assay Provider: Kyungjae Myung, NHGRI, NIH Keywords: MLPCN, qHTS, NCGC, genotoxicity, cancer Assay Overview: Cancer cells divide rapidly compared to normal cells in the body. During cell division, cancer cells need to duplicate their genome by DNA replication. The failure of genome duplication leads to cancer cells' death. Therefore, inhibitors of DNA replication could specifically kill cancer cells. Based on this concept, many chemotherapeutic agents were developed and have been used to treat cancer patients. However, there are a limited number of agents available in the clinical setting, and some of those that do exist have low efficacy and severe side effects. […] With this in mind, we developed a quantitative high-throughput ELG1-luciferase reporter gene assay. […]
# Assay Protocol Summary: For genotoxicity screening, 2,000 cells in 5 uL/well were dispensed into white, solid-bottom 1536-well plates using a solenoid-based dispenser. […] 5 ul ONE-Glo (Promega) was then added to each plate and following a 30 min incubation at room temperature, luciferase activity was quantified on a ViewLux CCD-based plate reader.
# Potency means the concentration at half of the fitted maximal effect.
row,Compound,Potency
1,Cc1cc(=O)oc2cc(OCc3ccccc3)ccc12,active: 14.6 µM
